These results are taken from patent US20100278787A1, “CARDIOMYOCYTE-LIKE CELL CLUSTERS DERIVED FROM HBS CELLS” (Cellartis AB, priority 2007, published 2010).

Entries after “also recorded” stand apart in the source; their conditions may differ.

This series has as its system CMLC clusters. Nature of the series: Transmembrane action potential (TAP) microelectrode recordings in beating CMLC. Particulars: E-4031, FIGS. 22 and 23.

Take `Cc1cccc(CCN2CCC(C(=O)c3ccc(NS(C)(=O)=O)cc3)CC2)n1` [E-4031]: the “Proarrhythmic potential: effect of IKr block on APs” value is “APD prolongation, triangulation, and EADs; also recorded: prolonged APD in all cases and clear signs of triangulation; also recorded: triangularization as an effect of the drug, triggered activity, and in some cases EADs were detected”.
